Patent US20250346630A1, “Engineering Peptides Using Peptide Epitope Linker Evolution” (AGENCY FOR SCIENCE, TECHNOLOGY AND RESEARCH, priority 2022, published 2025)

Key:
[1] = target: KRas; assay: M13 linear 12mer phage selection on the control protein, NGS abundance heat map [CONT.) D]
[2] = target: MDM2; assay: as above

SLTYTREFLRSL […]
binding [1]: no binding
binding [2]: no binding

These are yes or no findings as the source states them, for the method shown.
